Results reported in PubChem BioAssay AID901 (National Center for Advancing Translational Sciences (NCATS), 2007).
The other results are listed elsewhere or left out. The main result of the screen is listed elsewhere. These columns were measured beside it and carry no call. Most of these compounds were active or inconclusive in the main read-out, so they are no random draw. Words in brackets tell the shape of the fitted curve; partial curves, single points and poor fits give uncertain potencies.

Test: qHTS Assay for Identifying the Cell-Membrane Permeable IMPase Inhibitors
Details: CHO-M1 cells, IP1 accumulation, HTRF TR-FRET ratio; measured here: donor channel 620 nm AC50
Text: NCGC IMPase Assay Overview
Lithium has been widely used for the treatment of bipolar disorder. But lithium has a narrow therapeutic index and it can cause side effects such as thirst, weight gain, tremor, polyuria and memory problems. Although the mechanism for lithium action in treatment of bipolar disorder is still not fully understood, inhibition of inositol monophosphatase (IMPase) and the subsequent depletion of the inositol pool in living cells have been implicated as the primary therapeutic benefit of lithium therapy. Therefore, a selective IMPase inhibitor with reduced side effects might be a good drug candidate to replace lithium for the treatment of bipolar disorder. Several IMPase inhibitors have been discovered previously. However, they are not suitable for therapeutic use because of their poor cell membrane penetrability or oral bioavailability; the development of new cell-permeable IMPase inhibitors is needed.
IMPase catalyzes the hydrolysis of inositol-1-phosphate (IP1) to release free inositol. Binding of an agonist to a Gq coupled GPCR results in the activation of PLC, which hydrolyzes the PIP2 to form inositol-1,4,5-trisphosphate (IP3) and diacyl glycerol (DAG). While DAG activates protein kinase C (PKC), IP3 triggers the elevation of intracellular free Ca2+. The IP3 is very rapidly inactivated by hydrolysis to IP2, IP1 and then inositol by a series of enzymes including IMPase. Free inositols are used for synthesis of PI and thus start another inositol cycle.
To identify new cell-permeable IMPase inhibitors, we developed a cell-based IMPase assay in which the cytosolic IP1 is measured by a time-resolved fluorescence resonance energy transfer (TR-FRET) assay. In this assay, an IP1 specific antibody is used to detect the labeled IP1 tracer. When the cell lysate contains the elevated IP1 due to the inhibition of IMPase, the TR-FRET between the labeled antibody and IP1 tracer is disrupted resulting in a reduction in the total signal. Since the TR-FRET is used, this cell-based assay is a homogenous assay without cell wash and medium change that is suitable for assay miniaturization and HTS.
NCGC IMPase Assay Protocol Summary
A Chinese hamster ovary (CHO) cell line stably expressing the M1 receptor (CHO-M1) was obtained from ATCC and maintained in F-12 Kaighn's media (Invitrogen, Carlsbad, CA, 21127) supplemented with 10 % FBS, 100 units/ml penicillin, 100 ug/ml streptomycin and 250 ug/ml geneticin at 37C, 5% CO2 in a humidified atmosphere. Before the assay, aliquots of cells were frozen and stored at -135C. The assay was performed in 1536-well format. Data are reported for both the ratio of the two emission wavelengths, and also for the component 'donor' channel, Em2=620. […] AC50 values were determined from concentration-response data modeled with the standard Hill equation.
IMPase 1536-well assay protocol:
(1) Plate 4 ul/well (2000 cells) of cell suspension from frozen CHO-M1 Cells in white, tissue culture treated 1536-well plates that are cultured at 37C, 5 % CO2 for 16 to 30 hours.
(2) Add 23 nl/well of compound in DMSO solution. The final titration for each compound was between 0.6 nM and 46 uM.
(3) Add 1 ul of carbachol (50 uM in stimulation buffer containing10mM HEPES, 1mM CaCl2, 0.5 mM MgCl2, 4.2 mM KCl, 146 mM NaCl, 5.5 mM glucose, 50mM LiCl, pH 7.4.
(4) Incubation at 37C, 5 % CO2 for 30 min.
(5) Add 1 ul/well of d2-conjugated IP1 (d2-IP1) and 1 ul/well of Eu+ cryptate conjugated anti-IP1 antibody (Eu+-Ab) prepared in the cell lysis buffer, both from the IP-One kit (Cisbio, MA).
(6) Incubate at room temperature for 10 minutes.
(7) Detect the assay plate (Ex = 320, Em1 =665 and Em2 620) in a ViewLux plate reader.
inositol monophosphatase, IMPase, IMPase inhibitor, lithium, bipolar disorder, IP-One, HTRF, qHTS, NIH roadmap, NCGC
Note: In the gene ID and protein GI references for this assay, rat IMPase is referenced instead of hampster as hamster accession numbers were not available.

| SMILES | AC50 |
| --- | --- |
| Cc1cccc2cc(C#N)c(NCCNC(=O)NC3CCCCC3)nc12 | 31.6 µM [rising, single point] |
| COc1ccc(C2CC(C(F)(F)F)n3ncc(C(=O)NCC4CCCO4)c3N2)cc1OC (configuration not stated) | 0.501 µM [rising, full curve, poor fit] |
| O=C(Nc1nnc(-c2ccc3c(c2)CCCC3)o1)c1ccccc1 | 39.8 µM [falling, partial curve, poor fit] |
| CCc1cc(-c2[nH]ncc2-c2ccc3c(c2)OCO3)c(O)cc1O | 6.31 µM [falling, single point] |
| COc1ccc(NC(=O)CN2CCN(CC(=O)Nc3ccccc3F)CC2)cc1OC | 0.00794 µM [falling, full curve, poor fit] |
| CCOc1ccc(C(=O)NC2CCN(S(=O)(=O)CC)CC2)cc1 | 3.16 µM [falling, partial curve, poor fit] |
| Brc1ccc2c(c1)C(c1cccs1)=NNC(c1cccnc1)=N2 | 31.6 µM [rising, single point] |
| CC(C)CCN1C(=O)c2ccc(-c3nc4ccccc4c(=O)o3)cc2C1=O | 6.31 µM [rising, single point] |
| CCOC(=O)c1cccc(NC(=O)CSc2nc3cc4ccccc4cc3[nH]2)c1 | 3.16 µM [falling, single point] |
| Cc1ccc(-c2noc(CCC(=O)N(C)c3ccccc3C)n2)cc1 | 5.01 µM [rising, partial curve, poor fit] |
| Cc1cc2c(c(=O)n1CCCn1ccnc1)C(c1ccco1)C(C#N)=C(N)O2 (configuration not stated) | 3.16 µM [rising, single point] |
| Cc1nn(Cc2cccc(C(=O)Nc3ccn(Cc4ccccc4)n3)c2)c(C)c1[N+](=O)[O-] | 2 µM [falling, partial curve] |
| Clc1ccc(-n2ncc3c(N4CCCCCC4)ncnc32)cc1 | 0.112 µM [falling, full curve, poor fit] |
| O=C(O)C1=CC(=C(c2ccc(O)c(C(=O)O)c2)c2ccc(O)c(C(=O)O)c2)C=CC1=O | 12.6 µM [falling, single point] |
| CC(=O)Nc1cc(NC(C)=O)cc(C(=O)NC(C)(C)C)c1 | 0.0631 µM [rising, full curve, poor fit] |
| Fc1ccc(N2CCN(C(c3cccs3)c3nnnn3CCc3ccccc3)CC2)cc1 (configuration not stated) | 0.794 µM [falling, single point] |
| COc1ccc(C2CC(=O)c3cnc(NC(=O)c4ccccc4OC)nc3C2)c(OC)c1 (configuration not stated) | 31.6 µM [falling, single point] |

A stretch from the list above, as a working copy:

| SMILES | AC50 |
| --- | --- |
| Cc1cc2c(c(=O)n1CCCn1ccnc1)C(c1ccco1)C(C#N)=C(N)O2 (configuration not stated) | 3.16 µM [rising, single point] |
| Cc1nn(Cc2cccc(C(=O)Nc3ccn(Cc4ccccc4)n3)c2)c(C)c1[N+](=O)[O-] | 2 µM [falling, partial curve] |
